The other results are listed elsewhere or left out. Shown are side measurements of this screen, not its main read-out; they come without a call. Most of these compounds were active or inconclusive in the main read-out, so they are no random draw. The note in brackets gives the kind of curve behind each potency; many fits are weak.
Test: qHTS Assay to Find Inhibitors of Chronic Active B-Cell Receptor Signaling
Conditions: ABC-DLBCL IkBa-CBG/CBR reporter, luminescence ratio (green luciferase fused to IkBa over red control in TMD8 lymphoma cells), 4 h
Summary of the method: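 Cell line TMD8 (human ABC DLBCL), stably expressing tet-inducible CBG68-IkBa fusion and CBR; IMDM/0.5% FBS; cpd up to 46 uM; dox induction, 4 h, 37C/5% CO2; dual luminescence; green/red ratio; MG132 control.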

[1] = measured here: CBR red luminescence, cell number
[2] = measured here: IkBa-CBG green luminescence

Question: Which AC50 [1] does the source give for `Cc1cc(Br)ccc1NC(=O)c1sc2ncnc(N3CCN(c4ccccn4)CC3)c2c1C` here?
Answer: The AC50 was 6.31 µM [falling, single point].

Question: With `Cc1cc(C)c2c(c1)/C(=N/NC(=S)Nc1ccc(F)cc1)CCC2` as the compound, how does the AC50 [1] read?
Answer: The AC50 was 0.291 µM [falling, full curve, poor fit].

Question: For `CCN1c2ccc(S(=O)(=O)N3CCOCC3)cc2N(Cc2ccc(OC)cc2)C1C` (stereo not given), which AC50 [1] is on record?
Answer: Its AC50 is 8.91 µM [rising, partial curve, poor fit].

Question: Which AC50 [1] does the source give for `CCCCCCOC(=O)c1ccccc1NC(=O)/C=C/C(=O)O` here?
Answer: The AC50 was 0.562 µM [rising, partial curve, poor fit].

Question: Which AC50 [1] does the source give for `Cc1ccc(CN(C)C(=O)C2CCN(C(=O)Nc3ccccc3)CC2)o1` here?
Answer: Its AC50 is 14.6 µM [rising, partial curve].

Question: For `O=C(O)Cc1sc(Nc2cccc3ccccc23)nc1-c1ccc(Cl)cc1`, which AC50 [1] is on record?
Answer: The AC50 was 15.8 µM [falling, partial curve, poor fit].

Question: With `Cn1c(COc2ccccc2Br)nc2ccccc21` as the compound, how does the AC50 [1] read?
Answer: Its AC50 is 5.62 µM [rising, single point].

Question: With `COc1ccc(CN(C)C(=O)CCN2C(=O)c3ccccc3C2=O)c(OC)c1OC` as the compound, how does the AC50 [2] read?
Answer: Its AC50 is 7.08 µM [falling, partial curve, poor fit].

Question: Which AC50 [1] does the source give for `O=C(Nc1ccc(NC(=O)c2sc3ccccc3c2Cl)cc1)c1ccco1` here?
Answer: The AC50 was 2.91 µM [rising, full curve, poor fit].

Question: Which AC50 [1] does the source give for `Cc1cccc(C(=O)N/N=C/c2ccoc2)c1` here?
Answer: The AC50 was 15.8 µM [falling, partial curve, poor fit].

Question: For `COc1ccc(-c2ccc(-c3noc(C)n3)c(OC)n2)cc1`, which AC50 [1] is on record?
Answer: The AC50 was 20.6 µM [rising, single point].

Question: With `Cc1cccc2sc(NC(=O)CCNS(=O)(=O)c3cccc4nonc34)nc12` as the compound, how does the AC50 [1] read?
Answer: The AC50 was 15.8 µM [falling, partial curve, poor fit].

Question: For `COc1ccccc1NC(=O)C1=C(C)NC(SCC(=O)Nc2ccc(C(=O)O)cc2)=C(C#N)C1c1cccs1` (stereo not given), which AC50 [1] is on record?
Answer: Its AC50 is 7.94 µM [falling, partial curve].

Question: With `COc1ccccc1N1CCN(C2CCN(C(=O)COc3ccccc3)CC2)CC1` as the compound, how does the AC50 [1] read?
Answer: Its AC50 is 35.5 µM [rising, single point].

Question: Which AC50 [1] does the source give for `Fc1ccc(-c2nc3ccncc3[nH]2)cc1` here?
Answer: Its AC50 is 18.4 µM [falling, single point].

Question: Which AC50 [1] does the source give for `N#Cc1ccc(C(=O)Nc2nnc(-c3ccccn3)o2)cc1` here?
Answer: The AC50 was 2.91 µM [falling, full curve].

Question: What does the source list for `COC(=O)C(CCSC)NC(=O)c1cc2c(n(-c3ccc(C)cc3)c1=O)CCCC2=O` (stereo not given)?
Answer: AC50 [1]: 12.6 µM [rising, single point]; AC50 [2]: 12.6 µM [falling, single point]

Question: For `CN(CC(=O)Nc1ccccc1Cl)C(=O)CSc1nc2ccccc2s1`, which AC50 [1] is on record?
Answer: Its AC50 is 2.59 µM [rising, full curve, poor fit].

Question: With `Cc1sc2ncnc(N3CCC(C(=O)NNC(=O)COc4ccccc4Cl)CC3)c2c1C` as the compound, how does the AC50 [1] read?
Answer: The AC50 was 16.4 µM [falling, single point].

Question: Which AC50 [1] does the source give for `COc1ccc2c(CC(=O)OCC(=O)NC(=O)c3cccn3C)coc2c1` here?
Answer: The AC50 was 8.91 µM [rising, partial curve, poor fit].

Question: Which AC50 [1] does the source give for `NC(=S)NNc1ccnc2cc(Cl)ccc12` here?
Answer: The AC50 was 7.08 µM [rising, partial curve].

Question: For `O=C1NC(c2ccccc2)=C(c2nc3ccccc3s2)C(c2ccccc2)N1` (stereo not given), which AC50 [1] is on record?
Answer: The AC50 was 11.2 µM [falling, partial curve, poor fit].

Question: With `COCCN(C(=O)CSc1nnc(C)n1Cc1ccccc1)c1c(N)n(Cc2ccccc2)c(=O)[nH]c1=O` as the compound, how does the AC50 [1] read?
Answer: Its AC50 is 17.8 µM [rising, single point].

Question: For `N#Cc1ccc(-c2ccco2)nc1SCc1ccccc1`, which AC50 [1] is on record?
Answer: The AC50 was 10 µM [rising, partial curve].

Question: For `O=C(NC1CCCCC1)N1CCCCCC1`, which AC50 [1] is on record?
Answer: The AC50 was 35.5 µM [falling, single point].

Question: Which AC50 [1] does the source give for `Cc1cc(C)n(-c2nc3ccccc3nc2Nc2ccc3[nH]c(=O)[nH]c3c2)n1` here?
Answer: Its AC50 is 0.517 µM [falling, full curve, poor fit].

Question: For `CCOC(=O)c1[nH]c(C)c(C(=O)N2CCOCC2)c1C`, which AC50 [1] is on record?
Answer: Its AC50 is 0.13 µM [falling, full curve, poor fit].

Question: For `O=C(O)CSc1cc(C(=O)c2cc(F)ccc2O)cn2c(=O)c3c(-c4ccccc4)csc3nc12`, which AC50 [1] is on record?
Answer: The AC50 was 0.562 µM [falling, full curve, poor fit].

Question: For `COc1ccc(-n2c(CN3CCC(C)CC3)nc3ccc([N+](=O)[O-])cc3c2=O)c(OC)c1`, which AC50 [1] is on record?
Answer: Its AC50 is 7.08 µM [falling, partial curve, poor fit].

Question: Which AC50 [1] does the source give for `N/C(Cc1ccc(Cl)cc1)=N\OC(=O)c1ccccc1` here?
Answer: Its AC50 is 0.411 µM [rising, partial curve, poor fit].

Question: For `Cc1ccccc1NS(=O)(=O)c1ccc2[nH]cc(C(=O)NCCc3ccccc3)c(=O)c2c1`, which AC50 [1] is on record?
Answer: Its AC50 is 16.4 µM [falling, single point].

Question: For `C=CCNC(=S)/N=c1\sccn1C`, which AC50 [1] is on record?
Answer: Its AC50 is 4.47 µM [rising, partial curve, poor fit].

Question: Which AC50 [1] does the source give for `CCn1nc(C(=O)Nc2ccc3nc(C)sc3c2)c2ccccc2c1=O` here?
Answer: Its AC50 is 8.2 µM [rising, partial curve, poor fit].

Question: With `CCC(C)(C)n1nnnc1C(c1cc2cc3c(cc2[nH]c1=O)OCO3)N1CCN(C)CC1` (stereo not given) as the compound, how does the AC50 [1] read?
Answer: Its AC50 is 12.6 µM [falling, partial curve, poor fit].

Question: For `COc1ccc(C)cc1-n1c(N)c(C#N)c(C#N)c1-c1ccc(OC)c(OC)c1OC`, which AC50 [1] is on record?
Answer: Its AC50 is 18.4 µM [falling, single point].

Question: For `COC/C=C/C1=CC2=CC(=O)C(C)(OC(=O)CCC(=O)OC)C(=O)C2=CO1` (stereo not given), which AC50 [1] is on record?
Answer: The AC50 was 35.5 µM [rising, single point].

Question: Which AC50 [1] does the source give for `COc1cc(Cn2c(C(=O)O)cc3sccc32)cc(OC)c1OC` here?
Answer: Its AC50 is 29.1 µM [rising, single point].

Question: Which AC50 [1] does the source give for `NC(=O)c1ccc(-n2nnnc2Oc2ccccc2C(=O)N2CCOCC2)cc1` here?
Answer: Its AC50 is 1.16 µM [falling, full curve].

Question: Which AC50 [2] does the source give for `CCCCS/C(N)=N/N=C/c1cc(C)ccc1O` here?
Answer: The AC50 was 18.4 µM [falling, single point].

Question: With `O=C(CCCC(=O)c1ccccc1)NCc1ccccc1` as the compound, how does the AC50 [1] read?
Answer: Its AC50 is 17.8 µM [rising, single point].

Question: For `COC(=O)c1c(C#N)c(N)nc2c1CCCC2`, which AC50 [1] is on record?
Answer: The AC50 was 0.794 µM [falling, full curve, poor fit].

Question: With `CC(=O)NNc1ncnc2c1cnn2-c1ccccc1` as the compound, how does the AC50 [1] read?
Answer: The AC50 was 7.08 µM [falling, partial curve, poor fit].

Question: For `CN(C)CCCNC(=O)/C(=C\c1ccc(-c2ccc(Br)cc2)o1)NC(=O)c1ccccc1`, which AC50 [1] is on record?
Answer: The AC50 was 32.6 µM [falling, single point].

Question: Which AC50 [1] does the source give for `CN(c1ccccc1C(=O)Nc1ccc(CC#N)cc1)S(=O)(=O)c1ccccc1` here?
Answer: The AC50 was 35.5 µM [rising, single point].

Question: With `CC(=O)N1CCN(c2nnnn2-c2ccccc2)CC1` as the compound, how does the AC50 [1] read?
Answer: Its AC50 is 2.59 µM [falling, full curve, poor fit].

Question: Which AC50 [1] does the source give for `c1ccc(NCCCNc2ccccc2)cc1` here?
Answer: Its AC50 is 7.31 µM [rising, single point].

Question: With `O=C1c2ccccc2-c2c1cccc2C(=O)N1CCCCC1` as the compound, how does the AC50 [1] read?
Answer: The AC50 was 32.6 µM [rising, partial curve, poor fit].

Question: With `CSc1nc(N)c(C#N)c(-c2ccc(Cl)cc2)c1C#N` as the compound, how does the AC50 [1] read?
Answer: Its AC50 is 15.8 µM [falling, partial curve].

Question: With `COc1ccc(Cl)cc1NC(=O)CC1S/C(=N/N=C2CCCCCC2)NC1=O` (stereo not given) as the compound, how does the AC50 [1] read?
Answer: The AC50 was 7.08 µM [falling, partial curve].

Question: For `COCCNC(=O)c1onc(CSc2ccccc2)c1C(=O)O`, which AC50 [1] is on record?
Answer: The AC50 was 10 µM [falling, partial curve].

Question: For `CC(=O)NC1CC2CCCC(C1)N2CC(=O)NCc1ccc(F)cc1` (stereo not given), which AC50 [1] is on record?
Answer: The AC50 was 2.06 µM [falling, partial curve, poor fit].

Question: For `Cc1ccccc1OCCC(=O)Nc1cccc(S(=O)(=O)Nc2ccccc2Cl)c1`, which AC50 [1] is on record?
Answer: Its AC50 is 23.1 µM [falling, partial curve, poor fit].

Question: Which AC50 [1] does the source give for `COc1cccc(-c2cc3nc4c(c(N5CCC6(CC5)OCCO6)n3n2)CCCC4)c1` here?
Answer: Its AC50 is 18.4 µM [falling, single point].

Question: With `CCOc1ccc(NC(=O)c2ccc3c(c2)OCCO3)cc1S(=O)(=O)N(CC)CC` as the compound, how does the AC50 [1] read?
Answer: The AC50 was 0.58 µM [falling, full curve, poor fit].

Question: Which AC50 [1] does the source give for `Cc1cc(C)c(S(=O)(=O)NCCc2sc3nc(-c4ccc(F)cc4)nn3c2C)c(C)c1` here?
Answer: Its AC50 is 8.91 µM [falling, partial curve, poor fit].

Question: With `Cc1ccc(S(=O)(=O)NC(C)C(=O)OCC(=O)N(C)c2ccccc2)cc1` (stereo not given) as the compound, how does the AC50 [1] read?
Answer: Its AC50 is 6.51 µM [rising, single point].

Question: With `C=CCc1c(C)nc(SCc2nc3ccccc3c(=O)[nH]2)[nH]c1=O` as the compound, how does the AC50 [1] read?
Answer: The AC50 was 14.6 µM [falling, single point].

Question: For `CC(C)(C)C1CCc2c(sc3nc(SCC(N)=O)nc(N)c23)C1` (stereo not given), which AC50 [1] is on record?
Answer: The AC50 was 5.8 µM [falling, partial curve].

Question: Which AC50 [1] does the source give for `Nc1ccc2c(c1)C(=O)N(CCCCCC(=O)O)C2` here?
Answer: The AC50 was 5.8 µM [rising, partial curve, poor fit].

Question: With `COc1ccc(NC(=O)CCSc2cc(C)c3ccccc3n2)cc1` as the compound, how does the AC50 [1] read?
Answer: Its AC50 is 3.98 µM [rising, full curve, poor fit].

Question: With `Cc1ccc(-n2ncc3c(NCc4ccco4)ncnc32)c(C)c1` as the compound, how does the AC50 [1] read?
Answer: The AC50 was 0.116 µM [rising, full curve, poor fit].

Question: With `CCOc1ccc(-n2c(C)nc3cc(C(=O)NC4CCCC4)ccc32)cc1` as the compound, how does the AC50 [1] read?
Answer: Its AC50 is 1.41 µM [rising, full curve].

Question: Which AC50 [1] does the source give for `Cc1ccccc1CS(=O)(=O)CCC(=O)N1CCN(c2ccc(N3CCOCC3)nn2)CC1` here?
Answer: Its AC50 is 0.184 µM [rising, full curve, poor fit].

Question: For `COc1ccc(-c2occ(C(=O)O)c2C(=O)O)cc1`, which AC50 [1] is on record?
Answer: The AC50 was 13 µM [falling, partial curve, poor fit].

— PubChem BioAssay AID493014 (National Center for Advancing Translational Sciences (NCATS), 2011)
